Assay results from PubChem BioAssay (EPA / NIEHS).
Values joined by “and” are separate entries in the source; they are usually repeats but may differ in a detail not shown here. Equal values may be shown once. This list was built around the results that the source calls inconclusive (neither active nor inactive); the mix of calls is not that of the screen. Potencies of inconclusive entries are doubtful fits and often do not repeat. Some structures have more than one record in an assay (separate samples or runs), and their calls can disagree. Active and inactive are the calls of the source. The calls were made as follows: active = hit-call score of the fitted dose curve at least 0.9, where 1 is the maximum; inconclusive = response in the unintended direction; inactive = score below 0.9.

Amino acid sequences for entries named in this document (tags omitted). A change or cut given only in a name is not applied to a line headed by its entry.
UniProt Q07869: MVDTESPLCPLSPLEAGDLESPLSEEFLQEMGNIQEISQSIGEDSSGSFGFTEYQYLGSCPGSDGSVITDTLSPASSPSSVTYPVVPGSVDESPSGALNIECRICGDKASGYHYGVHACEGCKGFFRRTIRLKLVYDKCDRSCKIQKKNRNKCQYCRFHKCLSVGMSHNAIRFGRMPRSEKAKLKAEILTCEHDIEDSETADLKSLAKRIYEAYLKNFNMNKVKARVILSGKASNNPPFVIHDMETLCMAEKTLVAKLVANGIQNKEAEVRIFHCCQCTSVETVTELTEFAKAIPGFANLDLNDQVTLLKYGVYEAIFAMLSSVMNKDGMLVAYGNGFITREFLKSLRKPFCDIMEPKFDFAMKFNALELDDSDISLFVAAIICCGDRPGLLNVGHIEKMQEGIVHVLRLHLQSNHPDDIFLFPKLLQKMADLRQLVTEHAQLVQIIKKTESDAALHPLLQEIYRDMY

target: human Peroxisome Proliferator-activated Receptor alpha (PPARa), PPARA (gene 5465) (UniProt Q07869); experiment: ATG_PPARa_TRANS: Attagene TRANS-FACTORIAL HepG2 Assay for human Peroxisome Proliferator-activated Receptor alpha (PPARa) (AID 2283001);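 as to AC50: potency for gain of reporter signal over DMSO so agonist or activator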
Protocol: ATG_TRANS is a cell-based, multiplexed-readout assay that uses HepG2, a human liver cell line, with measurements taken at 24 hours after chemical dosing in a 24-well plate.ATG_PPARa_TRANS is one of 30 assay component(s) measured or calculated from the ATG_TRANS assay. It is designed to make measurements of mRNA induction, a form of inducible reporter, as detected with fluorescence intensity signals by Reverse transcription polymerase chain reaction (RT-PCR) and Capillary electrophoresis technology.Data from the assay component ATG_PPARa_TRANS was analyzed into 1 assay endpoint. This assay endpoint, ATG_PPARa_TRANS, was analyzed in the positive analysis fitting direction relative to DMSO as the negative control and baseline of activity. Using a type of inducible reporter, measures of mRNA for gain-of-signal activity can be used to understand the reporter gene at the transcription factor-level as they relate to the gene PPARA. Furthermore, this assay endpoint can be referred to as a primary readout, because this assay has produced multiple assay endpoints where this one serves a reporter gene function. To generalize the intended target to other relatable targets, this assay endpoint is annotated to the nuclear receptor intended target family, where the subfamily is non-steroidal.
Human liver HepG2 cells are transiently transfected with multiple reporter transcription units (MRTUs) in 6-well plates using FuGene 6 reagent (Roche; 3 ml FuGene/1 mg DNA). The MRTU constructs are regulated by a cis-regulating element (promoter). […] A major difference between the CIS and TRANS system is that in CIS activities of endogenous TFs are measured, whereas the TRANS assay evaluates changes in activities of exogenous, chimeric NR-Gal4 proteins. […] At the end of 24 hour incubation, total RNA was isolated using TriZol reagent (Invitrogen). The isolated RNA is then reverse-transcribed using oligo(dT) primer and Mo-MLV reverse transcriptase (Invitrogen) with DNAse I (Ambion) treatment for 30 min. The one-tenth of the produced cDNA was amplified by PCR using Taq DNA polymerase (Invitrogen) and two reporter sequence-specific primers. The PCR products were fluorescently labeled by primer extension with 6-arboxyfluorescein (6-FAM) 5'-labeled reporter sequence-specific primer (2 min at 95 C, 20 s at 68 C and 10 min at 72 C) and these products were digested with 5U of HpaI (New England Biolabs) for 2h at 37 C. The fragments were purified using Qiaquick PCR columns (Qiagen), analyzed on an ABI 3130xL genetic analyzer (Applied Biosystems) with peak positions identified by using a set of X-rhodamine (ROX)-labeled MapMarker1000 molecular weight standards (BioVentures). The raw capillary electrophoresis data was processed using Attagraph software (Attagene).

Row | Structure (SMILES) | AC50 | outcome
1 | CC1(C(=O)Nc2ccc(O)c(Cl)c2Cl)CCCCC1 | inconclusive: 50 µM | –
2 | CCC[N+](CCC)(CCC)CCC | inconclusive: 0.529 µM | –
3 | N#CCC#N | – | inactive
4 | c1ccc(P(c2ccccc2)c2ccccc2)cc1 | inconclusive: 25.8 µM | –
5 | CC1(C)Cc2cccc(O)c2O1 | inconclusive: 48.9 µM | –
6 | O=[N+]([O-])/N=C1\NCCN1Cc1ccc(Cl)nc1 | inconclusive: 50 µM | –
7 | COC(F)(C(F)(F)C(F)(F)F)C(F)(C(F)(F)F)C(F)(F)F (stereo not given) | inconclusive: 267 µM and inconclusive: 150 µM | –
8 | CSc1nc(N=[N+]=[N-])nc(NC(C)C)n1 | inconclusive: 6.35 µM | –
10 | ClC1=C(Cl)[C@]2(Cl)[C@H]3[C@H]([C@@H]4C=C[C@H]3C4)[C@@]1(Cl)C2(Cl)Cl | – | inactive
11 | O=C(Cl)OCCOCCOC(=O)Cl | – | inactive
12 | CC(=Cc1ccccc1)[N+](=O)[O-] | active: 11.1 µM | –
13 | Cc1cc(Cl)ccc1OCC(=O)O | inconclusive: 100 µM | –
14 | CNC(=O)ON=CC(C)(C)SC | inconclusive: 100 µM | –
15 | CC(C)(C)C(=O)C(Oc1ccc(Cl)cc1)n1cncn1 (stereo not given) | inconclusive: 50 µM | –
16 | C[As+](C)(C)CC(=O)[O-] | inconclusive: 100 µM | –
18 | CC(C)(c1ccc(OCC2CO2)cc1)c1ccc(OCC2CO2)cc1 (stereo not given) | inconclusive: 7.24 µM | –

Row | Structure (SMILES) | AC50 | outcome
21 | CC(C)(C)c1ccccc1OP(=O)(Oc1ccccc1)Oc1ccccc1 | inconclusive: 4.88 µM | –
22 | O=c1oc2ccccc2c(O)c1C(CC(O)c1ccc(-c2ccc(Br)cc2)cc1)c1ccccc1 (stereo not given) | active: 25.3 µM | inactive
23 | N#Cc1cc(I)c(O)c(I)c1 | active: 8.29 µM | –
24 | CC(C)CCCCCCOC(=O)c1ccccc1C(=O)OCCCCCCC(C)C | – | inactive
26 | CC(C)OC(=O)Nc1ccccc1 | inconclusive: 0.151 µM | –
27 | O=C(Nc1ccc2[nH]ccc2c1)c1cc2cc(F)ccc2n1Cc1cccc(F)c1 | inconclusive: 19.8 µM | –
28 | C[N+](C)(C)CC1CO1 (stereo not given) | inconclusive: 176 µM | –
29 | ClCCN1CCOCC1 | inconclusive: 19.8 µM | –
31 | COC(=O)c1ccccc1CS(=O)(=O)NC(=O)Nc1nc(OC)cc(OC)n1 | inconclusive: 0.0823 µM | inactive
32 | CCC(C)c1cc([N+](=O)[O-])cc([N+](=O)[O-])c1O (stereo not given) | active: 49.6 µM | –
33 | O=C(O)C(F)(F)OC(F)(F)C(F)(F)OC(F)(F)F | active: 17.9 µM and active: 15.4 µM | –
34 | O=C(Nc1ccccc1-c1ccc(Cl)cc1)c1cccnc1Cl | inconclusive: 50 µM | –
35 | Cc1ccccc1N | inconclusive: 31.4 µM | inactive

Some of the entries so far, with each value named.
CCC(C)c1cc([N+](=O)[O-])cc([N+](=O)[O-])c1O (stereo not given)
  AC50: active: 49.6 µM
O=C(O)C(F)(F)OC(F)(F)C(F)(F)OC(F)(F)F
  AC50: active: 17.9 µM and active: 15.4 µM
